In PubChem BioAssay AID504834 (National Center for Advancing Translational Sciences (NCATS), 2011):
Among all 320,000 compounds or so, about 22,000 (6.9%) were called active. Inconclusive means that the source gave no clear call. Such entries were picked first, then a sample of the others. The call rests on the fitted dose curve; in most records, active means well fitted inhibition curve with a large enough effect; inconclusive means small, poorly fitted or top-dose-only effect, or another doubt; inactive means no such curve, though single readings can be large or run the other way. Where the call is inconclusive, the potency comes from a doubtful curve fit.

test: Primary qHTS for delayed death inhibitors of the malarial parasite plastid, 96 hour incubation; conditions: P. falciparum luciferase reporter growth; series mostly up to 28.7 µM
How it was run: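 P. falciparum expressing integrated firefly luciferase, in erythrocytes at 2% hematocrit, 0.05% parasitemia, incubated with compounds 96 h at 37 C, 5% CO2. Growth inhibition read as loss of luminescence; two-generation exposure targets delayed-death apicoplast inhibitors.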
Potency means the concentration at half of the fitted maximal effect.

With `CCOC(=O)C(NCc1ccc(OC)cc1)(NC(C)=O)C(F)(F)F` (centres undefined) as the compound, how does the Potency read?
The Potency was inconclusive: 10.4 µM [inhibitor, partial curve].

Which Potency does the source give for `O=C(/C=C/c1ccc(S(=O)(=O)N2CCOCC2)cc1)NCc1ccccc1` here?
Its Potency is inconclusive: 11.7 µM [inhibitor, partial curve, poor fit].

For `CCCCn1c(SC(C)C(N)=O)nc2cc(C(=O)OC)ccc2c1=O` (centres undefined), which Potency is on record?
Its Potency is inconclusive: 0.0738 µM [inhibitor, full curve, poor fit].

For `COc1ccc(C)cc1NC(=O)c1c(C)nn(Cc2ccccc2)c1Cl`, which Potency is on record?
Its Potency is inconclusive: 18.5 µM [inhibitor, single point].

Which Potency does the source give for `O=C1N(Cc2cccnc2)C[C@@H]2C[C@@H](c3ccc(C(F)(F)F)cc3)N3CCC[C@@]123` here?
Its Potency is inconclusive: 7.38 µM [inhibitor, partial curve, poor fit].

With `Cc1ccc(C)c(NS(=O)(=O)c2cc(C(=O)N3CCCC3)ccc2Cl)c1` as the compound, how does the Potency read?
The Potency was “inactive”.

Which Potency does the source give for `CS(=O)(=O)N1CCN(C(=N)N[N+](=O)[O-])CC1` here?
The Potency was inconclusive: 18.5 µM [inhibitor, single point].

Which Potency does the source give for `O=C1c2cccc3cccc(c23)C(=O)N1c1cccc(O)c1` here?
Its Potency is “inactive”.

Which Potency does the source give for `C=CCNC(=O)C(=O)NCC1CCCN1CC` (centres undefined) here?
Its Potency is inconclusive: 18.5 µM [inhibitor, single point].

For `O=C(Nc1ccc(C(=O)Nc2ccccc2Cl)cc1)c1cccnc1`, which Potency is on record?
The Potency was “inactive”.

With `O=C(Nc1cccc(Cl)c1)N1CCN(C2c3ccccc3-c3ccccc32)CC1` as the compound, how does the Potency read?
The Potency was inconclusive: 0.037 µM [inhibitor, full curve, poor fit].

With `CCN(CC(=O)NCc1cccs1)S(=O)(=O)c1ccc(F)c(F)c1F` as the compound, how does the Potency read?
Its Potency is inconclusive: 14.7 µM [inhibitor, single point].

With `COC(=O)C1=C(C)NC(=O)C1(NC(=O)c1cccnc1)C(F)(F)F` (centres undefined) as the compound, how does the Potency read?
Its Potency is inconclusive: 2.33 µM [inhibitor, full curve].

Which Potency does the source give for `Cc1ccccc1N=Nc1c(C)[nH]n(C(N)=S)c1=O` here?
Its Potency is inconclusive: 18.5 µM [inhibitor, single point].

Which Potency does the source give for `NC(=O)COC(=O)c1ccc(-c2ccccc2)cc1` here?
Its Potency is “inactive”.

For `CCc1ccccc1NC(=O)CN1CCN(C(=O)CNC(=O)c2ccc(N3CCCC3=O)cc2)CC1`, which Potency is on record?
Its Potency is inconclusive: 5.86 µM [inhibitor, partial curve].

With `COc1ccc(/C=C(\NC(=O)c2ccc(OC)c(OC)c2)C(=O)NCCc2c[nH]c3ccccc23)cc1` as the compound, how does the Potency read?
Its Potency is inconclusive: 4.65 µM [inhibitor, partial curve, poor fit].

For `O=c1c2c(ncn2C2CCCC2)n(Cc2ccccc2)c(=O)n1CCOc1ccccc1`, which Potency is on record?
Its Potency is inconclusive: 0.329 µM [inhibitor, partial curve, poor fit].

Which Potency does the source give for `O=C(CN1CCN(c2ccccc2)CC1)Nc1ccc2c(c1)OCCO2` here?
The Potency was “inactive”.

With `C=C1SC(=Nc2c(C)cc(C)cc2C)N(C(=O)c2sc3ccccc3c2Cl)C12CCCCC2` as the compound, how does the Potency read?
Its Potency is active: 1.65 µM.

For `Cc1noc(N)c1C(=O)Nc1ccc(F)cc1`, which Potency is on record?
The Potency was active: 2.08 µM.

For `CCOC(=O)N1CCN(S(=O)(=O)N2CCCC(C(=O)NCCCN3CCCCC3CC)C2)CC1` (centres undefined), which Potency is on record?
Its Potency is “inactive”.

Which Potency does the source give for `CCOc1ccc(C(=O)Nc2nnc(SCC(=O)NCC3CCCO3)s2)cc1` (centres undefined) here?
Its Potency is “inactive”.

Which Potency does the source give for `O=C(c1ccc(Sc2cccc(Cl)c2)c([N+](=O)[O-])c1)N1CCN(c2ccccn2)CC1` here?
Its Potency is inconclusive: 1.17 µM [inhibitor, partial curve, poor fit].

For `CC(C)(C)OC(=O)N/N=C/c1cccc([N+](=O)[O-])c1`, which Potency is on record?
Its Potency is inconclusive: 18.5 µM [inhibitor, single point].

Which Potency does the source give for `COCCn1c(SCC(=O)N2CCCc3ccccc32)nnc1-c1ccco1` here?
Its Potency is inconclusive: 4.65 µM [inhibitor, partial curve].

For `C=C(C)CNC(=S)Nc1cccc2cnccc12`, which Potency is on record?
The Potency was “inactive”.

For `C/C(=N\N=C1\NC(=O)CS1)c1cccs1`, which Potency is on record?
Its Potency is inconclusive: 9.28 µM [inhibitor, single point].

Which Potency does the source give for `Cc1ccc2c(c1)sc(=NC(=O)C1CC1)n2C` here?
Its Potency is “inactive”.

For `Cc1ccc(C(=O)OCC(=O)Nc2ncc(C(F)(F)F)cc2Cl)cc1NC(=O)c1ccco1`, which Potency is on record?
Its Potency is inconclusive: 16.5 µM [inhibitor, partial curve, poor fit].

Which Potency does the source give for `O=C(NCc1ccc2c(c1)OCO2)c1cccnc1Cl` here?
The Potency was “inactive”.

Which Potency does the source give for `CC1=NN(c2ccccc2)C(=O)C1C(=O)c1cc([N+](=O)[O-])cc([N+](=O)[O-])c1` (centres undefined) here?
The Potency was “inactive”.

For `Cc1cccc(COCC(Cc2ccccc2)N2CCN(C(=O)c3cccc(Cl)c3)CCC2=O)c1` (centres undefined), which Potency is on record?
The Potency was active: 11.7 µM.

Which Potency does the source give for `CC(=O)c1cccc(NC(=O)c2sc3nc4n(c(=O)c3c2C)CCCCC4)c1` here?
The Potency was “inactive”.

For `COc1ccc(CN2CCNC(=O)C2CC(=O)N(C)C2CCOCC2)c(F)c1` (centres undefined), which Potency is on record?
The Potency was inconclusive: 14.7 µM [inhibitor, partial curve, poor fit].

Which Potency does the source give for `COc1ccc(Nc2cc(C)nc(N)n2)cc1` here?
Its Potency is inconclusive: 18.5 µM [inhibitor, single point].

Which Potency does the source give for `COc1ccc(CCn2ccc(O)c(Cc3c(F)cccc3Cl)c2=O)cc1OC` here?
The Potency was inconclusive: 0.0033 µM [inhibitor, full curve, poor fit].

Which Potency does the source give for `Cn1c(C(=O)N2CCCC(C(=O)O)C2)cc2sccc21` (centres undefined) here?
Its Potency is inconclusive: 0.0294 µM [inhibitor, full curve, poor fit].

For `CCOc1ccc(Cl)cc1S(=O)(=O)N1CCC(C(=O)NCc2ccccn2)CC1`, which Potency is on record?
Its Potency is inconclusive: 11.7 µM [inhibitor, single point].

Which Potency does the source give for `CC(=O)c1ccc(N=C2NC(=O)C(CO)(CO)S2)cc1` here?
Its Potency is inconclusive: 3.29 µM [inhibitor, full curve].

For `CC1=C(C)CC(C(=O)NCc2ccccc2F)C(C(=O)O)C1` (centres undefined), which Potency is on record?
The Potency was inconclusive: 11.7 µM [inhibitor, single point].

For `O=C(CSc1ccc2ccccc2n1)N1CCC(c2noc3ccc(F)cc23)CC1`, which Potency is on record?
Its Potency is inconclusive: 10.4 µM [inhibitor, single point].

With `COc1ccc(-c2nc3c(n2O)CCc2c-3no[n+]2[O-])cc1` as the compound, how does the Potency read?
Its Potency is “inactive”.

With `COc1ccc(CCN2CC(C(=O)NCC(=O)Nc3ccc(F)c(F)c3)CC2=O)cc1OC` (centres undefined) as the compound, how does the Potency read?
The Potency was inconclusive: 11.7 µM [inhibitor, single point].
